PubChem BioAssay AID1224830 | NIAID – 2016
Assay: 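Genes whose knock-down alters the TNF-alpha reporter response to LPS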 (primary screen). System: human THP-1 monocytic leukaemia cells, TNF dual-luciferase reporter clone, PMA-differentiated to macrophage-like cells. Reagents: siRNA pool against human genes, 50 nM. Duration: LPS for 4 h, given about 3 days after siRNA transfection. Conditions: bacterial LPS (TLR4 ligand), 10 ng/ml. Measured: 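TNF firefly reporter luminescence divided by renilla, normalised to the plate median, then turned into a robust z-score for each replicate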. Scale: TNF reporter robust z-score: higher = stronger TNF reporter response to LPS. Rule for the call: 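Each well counts as active if its z-score is over 2.8 or under -1.5; controls are left without a call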.
In all, the deposit lists about 18,000 reagents; this is a part drawn at random. In the full data, about 2,900 (16%) are marked active. 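Calls are made per well; low scores hint the gene aids the LPS response, high scores that it dampens it.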 Repeated entries: four replicate wells of each siRNA pool.

target,TNF reporter robust z-score,outcome
NEK4,-0.15,inactive
NEK4,0.96,inactive
NEK4,0.36,inactive
NEK4,0.15,inactive
TSC2,-0.21,inactive
TSC2,0.26,inactive
TSC2,2.15,inactive
TSC2,-0.62,inactive
MMP21,-0.35,inactive
MMP21,0.6,inactive
MMP21,-1.43,inactive
MMP21,-0.09,inactive
SRD5A3,-0.7,inactive
SRD5A3,-0.23,inactive
SRD5A3,-0.38,inactive
SRD5A3,0.12,inactive
GNS,1.33,inactive
GNS,0.9,inactive
GNS,0.97,inactive
GNS,0.52,inactive
PARP10,-1.4,inactive
PARP10,-1.28,inactive
PARP10,-1.27,inactive
PARP10,-1.02,inactive
RHBDL2,0.24,inactive
RHBDL2,2.24,inactive
RHBDL2,0.27,inactive
RHBDL2,2.18,inactive
PRNP,-1.03,inactive
PRNP,-0.93,inactive
PRNP,-0.75,inactive
PRNP,2.67,inactive
TBX20,0.25,inactive
TBX20,1.42,inactive
TBX20,0.28,inactive
TBX20,0.79,inactive
TSPY1,1.78,inactive
TSPY1,2.54,inactive
TSPY1,1.34,inactive
TSPY1,1.91,inactive
MOGAT2,0.86,inactive
MOGAT2,0.25,inactive
MOGAT2,-1.17,inactive
MOGAT2,0.54,inactive
SMARCA4,-0.23,inactive
SMARCA4,-0.45,inactive
SMARCA4,-0.37,inactive
SCFD2,1.09,inactive
SCFD2,-0.27,inactive
SCFD2,-0.39,inactive
SCFD2,0.79,inactive
KCNJ8,0.59,inactive
KCNJ8,0.25,inactive
KCNJ8,0.61,inactive
KCNJ8,0.17,inactive
BAIAP3,-1.42,inactive
BAIAP3,-1.43,inactive
BAIAP3,-1.05,inactive
BAIAP3,-1.16,inactive
LAIR1,-0.21,inactive
LAIR1,-0.72,inactive
LAIR1,-0.6,inactive
LAIR1,-0.71,inactive
COPS3,3.47,active
COPS3,0.94,inactive
COPS3,1,inactive
COPS3,1.64,inactive
HRK,0.82,inactive
HRK,2.41,inactive
HRK,0.32,inactive
HRK,1.43,inactive
GFRA3,1.66,inactive
GFRA3,1.43,inactive
GFRA3,0.59,inactive
GFRA3,1.04,inactive

Copied from the entries so far (10 entries):
target,TNF reporter robust z-score,outcome
TBX20,0.25,inactive
TBX20,1.42,inactive
TBX20,0.28,inactive
TBX20,0.79,inactive
TSPY1,1.78,inactive
TSPY1,2.54,inactive
TSPY1,1.34,inactive
TSPY1,1.91,inactive
MOGAT2,0.86,inactive
MOGAT2,0.25,inactive
